Measured values reported in patent US20190194276A1 (MAYO FOUNDATION FOR MEDICAL EDUCATION AND RESEARCH, published 2019).
Results are given in words; binding and its absence hold for the method and conditions named. For part of these data: In cells and extracts the contact can be indirect. Some binding calls cover weakened binding; strength is not graded here.

The chains behind the UniProt entries cited, without tags or fusion partners. Residues count along the entry.
UniProt Q12778: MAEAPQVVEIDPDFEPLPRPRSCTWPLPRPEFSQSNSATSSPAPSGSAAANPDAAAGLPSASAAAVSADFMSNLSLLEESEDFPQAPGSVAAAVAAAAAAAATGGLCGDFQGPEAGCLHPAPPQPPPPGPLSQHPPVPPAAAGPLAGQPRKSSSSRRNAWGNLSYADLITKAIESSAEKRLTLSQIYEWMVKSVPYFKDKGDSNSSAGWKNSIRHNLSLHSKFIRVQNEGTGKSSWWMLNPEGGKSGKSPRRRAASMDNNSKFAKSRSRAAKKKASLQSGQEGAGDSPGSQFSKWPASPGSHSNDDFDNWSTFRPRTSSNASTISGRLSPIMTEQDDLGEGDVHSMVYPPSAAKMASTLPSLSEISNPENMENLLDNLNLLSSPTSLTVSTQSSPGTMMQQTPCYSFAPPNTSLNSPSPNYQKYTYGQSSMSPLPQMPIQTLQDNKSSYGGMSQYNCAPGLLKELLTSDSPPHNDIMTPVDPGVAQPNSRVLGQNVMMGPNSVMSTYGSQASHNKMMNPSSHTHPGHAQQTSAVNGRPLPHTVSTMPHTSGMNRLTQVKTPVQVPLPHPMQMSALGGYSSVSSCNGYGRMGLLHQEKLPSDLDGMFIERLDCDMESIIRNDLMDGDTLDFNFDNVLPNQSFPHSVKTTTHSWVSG
UniProt P46940, residues 2-1657: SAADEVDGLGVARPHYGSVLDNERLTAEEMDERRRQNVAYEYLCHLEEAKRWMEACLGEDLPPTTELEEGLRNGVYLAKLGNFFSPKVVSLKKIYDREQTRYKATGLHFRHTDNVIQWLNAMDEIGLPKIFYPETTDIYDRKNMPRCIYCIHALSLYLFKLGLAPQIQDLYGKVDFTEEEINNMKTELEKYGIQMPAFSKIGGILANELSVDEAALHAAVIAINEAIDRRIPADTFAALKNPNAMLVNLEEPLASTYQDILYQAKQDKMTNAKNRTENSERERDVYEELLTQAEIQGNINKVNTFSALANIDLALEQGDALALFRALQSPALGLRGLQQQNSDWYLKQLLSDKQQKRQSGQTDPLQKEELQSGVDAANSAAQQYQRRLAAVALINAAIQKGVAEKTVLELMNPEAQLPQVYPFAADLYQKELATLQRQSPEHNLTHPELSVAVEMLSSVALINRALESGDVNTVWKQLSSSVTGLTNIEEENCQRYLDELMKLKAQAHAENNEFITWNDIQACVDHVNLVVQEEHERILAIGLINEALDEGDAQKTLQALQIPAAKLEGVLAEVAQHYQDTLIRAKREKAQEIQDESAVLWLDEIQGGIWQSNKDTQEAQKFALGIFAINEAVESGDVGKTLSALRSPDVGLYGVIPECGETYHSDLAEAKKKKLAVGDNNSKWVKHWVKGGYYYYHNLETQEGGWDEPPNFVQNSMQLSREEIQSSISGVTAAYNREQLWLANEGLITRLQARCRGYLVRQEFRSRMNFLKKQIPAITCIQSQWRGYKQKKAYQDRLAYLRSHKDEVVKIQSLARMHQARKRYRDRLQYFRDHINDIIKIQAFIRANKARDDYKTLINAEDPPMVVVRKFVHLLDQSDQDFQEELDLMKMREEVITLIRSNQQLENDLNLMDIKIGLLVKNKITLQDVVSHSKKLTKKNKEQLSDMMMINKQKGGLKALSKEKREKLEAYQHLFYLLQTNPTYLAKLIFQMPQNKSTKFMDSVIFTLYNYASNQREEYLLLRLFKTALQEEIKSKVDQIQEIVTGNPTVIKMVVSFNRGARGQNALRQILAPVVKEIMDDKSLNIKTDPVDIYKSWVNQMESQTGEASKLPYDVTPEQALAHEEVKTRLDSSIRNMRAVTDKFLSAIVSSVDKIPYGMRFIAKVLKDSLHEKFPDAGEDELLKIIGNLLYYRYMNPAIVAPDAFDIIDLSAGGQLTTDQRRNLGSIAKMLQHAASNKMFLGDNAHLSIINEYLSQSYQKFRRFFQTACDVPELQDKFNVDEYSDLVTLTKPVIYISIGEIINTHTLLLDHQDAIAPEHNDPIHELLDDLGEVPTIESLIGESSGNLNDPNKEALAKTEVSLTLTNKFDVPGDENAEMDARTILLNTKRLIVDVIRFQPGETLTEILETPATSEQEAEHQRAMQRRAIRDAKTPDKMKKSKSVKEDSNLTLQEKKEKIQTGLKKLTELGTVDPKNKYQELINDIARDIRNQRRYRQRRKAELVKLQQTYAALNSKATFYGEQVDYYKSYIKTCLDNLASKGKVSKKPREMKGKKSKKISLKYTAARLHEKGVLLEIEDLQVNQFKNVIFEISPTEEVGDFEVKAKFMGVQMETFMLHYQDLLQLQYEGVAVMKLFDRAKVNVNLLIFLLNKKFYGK
UniProt Q93009: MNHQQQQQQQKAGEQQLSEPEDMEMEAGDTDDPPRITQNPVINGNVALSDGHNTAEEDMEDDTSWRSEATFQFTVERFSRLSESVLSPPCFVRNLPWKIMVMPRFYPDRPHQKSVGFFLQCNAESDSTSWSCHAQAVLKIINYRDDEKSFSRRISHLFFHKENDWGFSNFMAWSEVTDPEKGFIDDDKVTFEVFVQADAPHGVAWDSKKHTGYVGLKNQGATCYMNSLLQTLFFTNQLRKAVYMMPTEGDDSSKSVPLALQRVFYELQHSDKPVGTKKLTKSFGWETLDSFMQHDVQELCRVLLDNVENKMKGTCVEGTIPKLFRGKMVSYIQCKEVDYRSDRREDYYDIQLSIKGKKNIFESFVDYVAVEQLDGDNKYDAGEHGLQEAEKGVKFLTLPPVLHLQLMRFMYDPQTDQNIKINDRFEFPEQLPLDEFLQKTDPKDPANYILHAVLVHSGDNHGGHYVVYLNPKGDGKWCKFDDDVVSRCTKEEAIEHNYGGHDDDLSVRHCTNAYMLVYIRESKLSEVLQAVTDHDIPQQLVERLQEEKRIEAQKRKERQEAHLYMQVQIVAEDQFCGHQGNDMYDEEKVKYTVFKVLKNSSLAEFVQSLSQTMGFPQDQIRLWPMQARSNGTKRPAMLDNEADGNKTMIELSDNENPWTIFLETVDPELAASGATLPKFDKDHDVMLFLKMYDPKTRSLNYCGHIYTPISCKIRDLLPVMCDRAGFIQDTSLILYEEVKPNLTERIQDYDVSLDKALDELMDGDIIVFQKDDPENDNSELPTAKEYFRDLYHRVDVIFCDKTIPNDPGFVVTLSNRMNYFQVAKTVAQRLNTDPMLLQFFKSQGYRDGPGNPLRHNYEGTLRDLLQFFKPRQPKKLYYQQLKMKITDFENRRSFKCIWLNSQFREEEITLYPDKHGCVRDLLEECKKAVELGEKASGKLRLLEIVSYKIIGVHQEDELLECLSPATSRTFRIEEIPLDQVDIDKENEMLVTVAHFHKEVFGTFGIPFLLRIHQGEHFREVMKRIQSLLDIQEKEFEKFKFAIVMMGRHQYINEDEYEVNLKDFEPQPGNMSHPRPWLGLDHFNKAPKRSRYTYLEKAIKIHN

Tests used:
endogenous FOXO1 (human) [1] = molecular target: endogenous FOXO1 (human) (UniProt Q12778); experiment: GST pull-down from LNCaP whole cell lysate, Western blot
SFB-tagged FOXO1 (human) = SFB-tagged FOXO1 (human) (UniProt Q12778); experiment: TAP of SFB-FOXO1 from 293T cells, LC-MS/MS
endogenous FOXO1 (human) [2] = molecular target: endogenous FOXO1 (human) (UniProt Q12778); experiment: figure legend: TAP-MS, co-IP, GST pull-down

## GST-IQGAP1 recombinant protein of the coiled-coil domain (from UniProt P08515 1-218; P46940 166-670)
Endogenous FOXO1 (human) [1]
  binding: binds

## USP7 (from UniProt Q93009 1-1102) (enzyme)
SFB-tagged FOXO1 (human)
  binding: binds

## endogenous IQGAP1 (from UniProt P46940 2-1657)
Endogenous FOXO1 (human) [2]
  binding: binds
